Results as given in PMC11054660.

Assays:
[1] = biological target: T1, T4 gp27 with an N-terminal 10xHis-tag (gp27-N), purified (bacteriophage T4) (UniProt P17172); assay: cross-linking + affinity purification with mass spectrometry; purified gp27-N added to E. coli C3022 spheroplasts, 0.44% paraformaldehyde, RT, 20 min; lysis with 1% Triton-X-100; TALON Superflow (nickel) affinity chromatography, SDS-PAGE, MALDI of the 75 kDa and 150 kDa bands; only the target purified
T1 sequence: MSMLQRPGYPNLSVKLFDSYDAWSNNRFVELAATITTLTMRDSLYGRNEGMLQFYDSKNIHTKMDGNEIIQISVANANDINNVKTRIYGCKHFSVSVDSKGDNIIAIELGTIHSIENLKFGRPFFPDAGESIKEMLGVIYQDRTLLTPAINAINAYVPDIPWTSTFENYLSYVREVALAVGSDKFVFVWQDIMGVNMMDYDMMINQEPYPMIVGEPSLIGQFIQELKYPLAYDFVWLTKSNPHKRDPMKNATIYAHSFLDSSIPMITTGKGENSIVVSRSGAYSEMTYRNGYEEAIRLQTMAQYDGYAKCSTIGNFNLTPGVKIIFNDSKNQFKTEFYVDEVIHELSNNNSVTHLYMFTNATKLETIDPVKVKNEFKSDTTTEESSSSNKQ

[2] = biological target: T2, gp27-N-His built into modified T4 amber27 phage particles (bacteriophage T4) (UniProt P17172); assay: cross-linking + affinity purification with mass spectrometry; E. coli C3022 cells infected with CsCl-purified T4 amber27 phages carrying gp27-N-His (m.o.i. 2), 0.44% paraformaldehyde, 10 min, 37 °C; lysis with 1% Triton-X-100 and 2.5 M urea; nickel affinity chromatography, SDS-PAGE, MALDI of the 75, 100 and 150 kDa bands
T2 sequence: T1 sequence

binding [1]: binds
binding [2]: binds
B1: periplasmic E. coli chaperon PpiD, endogenous in E. coli (protein, UniProt P0ADY1 1-623)
chain: MMDSLRTAANSLVLKIIFGIIIVSFILTGVSGYLIGGGNNYAAKVNDQEISRGQFENAFNSERNRMQQQLGDQYSELAANEGYMKTLRQQVLNRLIDEALLDQYARELKLGISDEQVKQAIFATPAFQVDGKFDNSRYNGILNQMGMTADQYAQALRNQLTTQQLINGVAGTDFMLKGETDELAALVAQQRVVREATIDVNALAAKQPVTEQEIASYYEQNKNNFMTPEQFRVSYIKLDAATMQQPVSDADIQSYYDQHQDQFTQPQRTRYSIIQTKTEDEAKAVLDELNKGGDFAALAKEKSADIISARNGGDMGWLEDATIPDELKNAGLKEKGQLSGVIKSSVGFLIVRLDDIQPAKVKSLDEVRDDIAAKVKHEKALDAYYALQQKVSDAASNDTESLAGAEQAAGVKATQTGWFSKDNLPEELNFKPVADAIFNGGLVGENGAPGINSDIITVDGDRAFVLRISEHKPEAVKPLADVQEQVKALVQHNKAEQQAKVDAEKLLVDLKAGKGAEAMQAAGLKFGEPKTLSRSGRDPISQAAFALPLPAKDKPSYGMATDMQGNVVLLALDEVKQGSMPEDQKKAMVQGITQNNAQIVFEALMSNLRKEAKIKIGDALEQQ

binding [1]: binds
binding [2]: binds
B2: succinate dehydrogenase SdhA, endogenous in E. coli (protein, UniProt P0AC41 1-588)
chain: MKLPVREFDAVVIGAGGAGMRAALQISQSGQTCALLSKVFPTRSHTVSAQGGITVALGNTHEDNWEWHMYDTVKGSDYIGDQDAIEYMCKTGPEAILELEHMGLPFSRLDDGRIYQRPFGGQSKNFGGEQAARTAAAADRTGHALLHTLYQQNLKNHTTIFSEWYALDLVKNQDGAVVGCTALCIETGEVVYFKARATVLATGGAGRIYQSTTNAHINTGDGVGMAIRAGVPVQDMEMWQFHPTGIAGAGVLVTEGCRGEGGYLLNKHGERFMERYAPNAKDLAGRDVVARSIMIEIREGRGCDGPWGPHAKLKLDHLGKEVLESRLPGILELSRTFAHVDPVKEPIPVIPTCHYMMGGIPTKVTGQALTVNEKGEDVVVPGLFAVGEIACVSVHGANRLGGNSLLDLVVFGRAAGLHLQESIAEQGALRDASESDVEASLDRLNRWNNNRNGEDPVAIRKALQECMQHNFSVFREGDAMAKGLEQLKVIRERLKNARLDDTSSEFNTQRVECLELDNLMETAYATAVSANFRTESRGAHSRFDFPDRDDENWLCHSLYLPESESMTRRSVNMEPKLRPAFPPKIRTY

binding [1]: binds
binding [2]: binds
B3: cell division protein DamX, endogenous in E. coli (protein, UniProt P11557 1-428)
chain: MDEFKPEDELKPDPSDRRTGRSRQSSERSERTERGEPQINFDDIELDDTDDRRPTRAQKERNEEPEIEEEIDESEDETVDEERVERRPRKRKKAASKPASRQYMMMGVGILVLLLLIIGIGSALKAPSTTSSDQTASGEKSIDLAGNATDQANGVQPAPGTTSAENTQQDVSLPPISSTPTQGQTPVATDGQQRVEVQGDLNNALTQPQNQQQLNNVAVNSTLPTEPATVAPVRNGNASRDTAKTQTAERPSTTRPARQQAVIEPKKPQATVKTEPKPVAQTPKRTEPAAPVASTKAPAATSTPAPKETATTAPVQTASPAQTTATPAAGAKTAGNVGSLKSAPSSHYTLQLSSSSNYDNLNGWAKKENLKNYVVYETTRNGQPWYVLVSGVYASKEEAKKAVSTLPADVQAKNPWAKPLRQVQADLK

No constants are given. Whether binding was seen depends on the method and setting. In cells and extracts the contact can be indirect. A yes stands for co-enrichment or nearness to the bait. Other partners may have been found. Sequences can lack the tags named with a protein. One block for each binder: values may come before it.
